Measured values published in US20030040531A1, “Remedies for reperfusion injury containing integrin alphanubeta 3 antagonist” (priority 2000, published 2003).

Tested on: hamster acute ischemia-reperfusion model
Experiment: hamster acute ischemia-reperfusion model
Assay type: in vivo
Details: average±SE, n=5, solvent administration group 53.6±3.6%
Procedure: A polyethylene tube was inserted into the carotid artery and the survical vein of Syrian male hamsters (10 to 13 weeks old) under pentobarbital anesthesia (60 mg/kg, i.p.). An electrocardiogram (I or II leading) was measured through a bioelectricity amplifier by leading from electrodes which had pierced the limbs. A polyethylene tube was inserted into the trachea, and artificial respiration was carried out with an artificial respirator (amount of ventilation: 10 ml/kg/stroke, number of times of ventilation: 70 strokes/min). The blood pressure was measured through a blood pressure amplifier, and the heart rate was measured with a heart rate unit using blood pressure as a trigger. […] Ischemia for 90 min was followed by reperfusion for 2 hr to quantitatively determine myocardial infarct size.
A sodium salt of the compound represented by formula (IV) was mixed with a 2-fold equivalent of arginine, and the mixture was dissolved in a 5% glucose solution. […] For each slice, the left ventricle (LV) was separated, and the weight of the left ventricle and the weight of the area-at-risk (AR) were measured. The area-at-risk was stained with a 50 mM Tris.HCl (pH 7.4, 37° C.) buffer containing 1.5% triphenyltetrazolium chloride heated at 37° C., and the weight of the infarct area (IS; infarct size) was measured. […]

Q: `O=C(NCC(NS(=O)(=O)c1ccccc1)C(=O)O)c1ccc(N2CCC(NC3=NCCCN3)CC2)c(F)c1` (stereo in doubt) [formula (IV), (2S)-Benzenesulfonylamino-3-[3-fluoro-4-{4-(1,4,5,6-tetrahydropyrimidin-2-ylamino)-piperidin-1-yl}benzoylamino]propionic Acid] was tested. Which “ischemia area in the left ventricle (AR/LV)” value (group H 1.0 mg/kg+1.0 mg/kg/h) did it give?
A: The value was 51.4±4.3%.

Q: And the “ischemia area in the left ventricle (AR/LV)” value (group L 0.33 mg/kg+0.33 mg/kg/h)?
A: Its value is 51.5±3.0%.
